# PMC5452337
# Amino acid sequences for entries named in this document (tags omitted). Residues count along the entry.
# UniProt Q9Z0U4, residues 20-960: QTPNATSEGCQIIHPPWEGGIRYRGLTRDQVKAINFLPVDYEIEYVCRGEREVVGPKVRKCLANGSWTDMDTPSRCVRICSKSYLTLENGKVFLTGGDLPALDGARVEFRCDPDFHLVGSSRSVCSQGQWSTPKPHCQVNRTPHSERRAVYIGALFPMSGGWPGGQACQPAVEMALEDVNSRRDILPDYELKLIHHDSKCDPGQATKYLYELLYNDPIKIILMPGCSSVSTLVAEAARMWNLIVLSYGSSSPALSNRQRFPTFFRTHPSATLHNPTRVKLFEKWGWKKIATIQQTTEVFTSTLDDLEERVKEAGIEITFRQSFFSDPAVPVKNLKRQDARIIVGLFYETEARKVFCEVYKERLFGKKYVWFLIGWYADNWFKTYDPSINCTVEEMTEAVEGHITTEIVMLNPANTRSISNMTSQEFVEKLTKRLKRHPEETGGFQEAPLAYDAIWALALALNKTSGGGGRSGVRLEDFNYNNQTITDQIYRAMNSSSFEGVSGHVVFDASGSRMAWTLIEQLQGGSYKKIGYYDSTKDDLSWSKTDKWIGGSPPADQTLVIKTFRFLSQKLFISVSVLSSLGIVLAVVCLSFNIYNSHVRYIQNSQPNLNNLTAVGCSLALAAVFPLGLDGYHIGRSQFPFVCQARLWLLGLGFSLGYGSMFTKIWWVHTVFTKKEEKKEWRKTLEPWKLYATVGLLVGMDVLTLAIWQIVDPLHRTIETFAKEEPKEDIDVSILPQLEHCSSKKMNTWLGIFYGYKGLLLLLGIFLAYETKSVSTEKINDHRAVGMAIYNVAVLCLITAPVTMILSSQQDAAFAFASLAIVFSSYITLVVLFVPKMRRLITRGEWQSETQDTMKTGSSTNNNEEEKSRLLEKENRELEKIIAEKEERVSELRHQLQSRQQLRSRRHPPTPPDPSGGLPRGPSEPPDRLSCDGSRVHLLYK
# These are yes or no findings as the source states them, for the method shown. Binding seen in cells or lysates may run through a third protein. Some results given as binding are weak or reduced against the parent protein; the word gives no strength.
# T1: potassium-chloride cotransporter KCC2 (rat (endogenous in organotypic hippocampal slices)) (UniProt Q63633)
# T1 sequence: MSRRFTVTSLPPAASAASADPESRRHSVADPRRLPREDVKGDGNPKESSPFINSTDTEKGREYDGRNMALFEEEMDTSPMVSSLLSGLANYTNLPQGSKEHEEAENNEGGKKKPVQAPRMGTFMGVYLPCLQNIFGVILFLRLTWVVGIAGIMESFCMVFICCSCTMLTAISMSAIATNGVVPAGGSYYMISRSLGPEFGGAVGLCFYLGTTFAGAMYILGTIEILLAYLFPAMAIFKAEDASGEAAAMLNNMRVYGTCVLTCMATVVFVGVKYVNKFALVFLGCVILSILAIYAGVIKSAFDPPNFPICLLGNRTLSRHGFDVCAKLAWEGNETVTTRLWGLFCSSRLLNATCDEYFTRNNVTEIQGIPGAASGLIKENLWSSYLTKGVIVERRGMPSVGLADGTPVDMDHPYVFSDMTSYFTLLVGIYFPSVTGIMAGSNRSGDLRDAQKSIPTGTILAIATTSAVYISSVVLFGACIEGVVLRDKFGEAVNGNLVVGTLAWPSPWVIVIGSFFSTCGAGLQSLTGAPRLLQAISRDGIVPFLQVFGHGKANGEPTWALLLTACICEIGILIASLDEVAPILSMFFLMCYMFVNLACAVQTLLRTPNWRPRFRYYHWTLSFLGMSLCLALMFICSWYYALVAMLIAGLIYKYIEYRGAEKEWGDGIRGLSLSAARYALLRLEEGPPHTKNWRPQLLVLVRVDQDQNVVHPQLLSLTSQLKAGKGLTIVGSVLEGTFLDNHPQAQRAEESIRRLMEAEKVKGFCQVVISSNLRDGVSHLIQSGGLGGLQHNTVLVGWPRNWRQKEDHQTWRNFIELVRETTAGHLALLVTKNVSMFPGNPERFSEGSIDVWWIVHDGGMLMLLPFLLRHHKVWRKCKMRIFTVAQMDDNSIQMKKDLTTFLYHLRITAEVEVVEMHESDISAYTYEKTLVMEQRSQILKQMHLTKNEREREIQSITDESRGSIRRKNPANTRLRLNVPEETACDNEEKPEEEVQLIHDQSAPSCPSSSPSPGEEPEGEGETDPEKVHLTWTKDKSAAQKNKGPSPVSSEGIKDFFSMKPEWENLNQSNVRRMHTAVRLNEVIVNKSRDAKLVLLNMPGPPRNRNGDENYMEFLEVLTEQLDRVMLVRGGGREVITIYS
# Legend:
# [1] = target: T1, potassium-chloride cotransporter KCC2 (rat (endogenous in organotypic hippocampal slices)); experiment: co-IP; lysates of rat organotypic hippocampal slices in CHAPS buffer (50 mM Tris pH 7.5, 150 mM NaCl, 5 mM EDTA, 0.5% CHAPS); precipitation with anti-GABABR1 or anti-KCC2, Protein A/G agarose, immunoblot; IgG controls; also slices treated with SKF97541 (amount of KCC2 in GABABR1 complexes not changed)
# [2] = target: GABAB receptor subunit 1, splice isoform GABABR1a (rat (endogenous in organotypic hippocampal slices)) (UniProt Q9Z0U4); experiment: as above
binding [1],binding [2],Molecule
binds,,"GABAB receptor subunit 1, splice isoform GABABR1a (from UniProt Q9Z0U4 20-960)"
,binds,"potassium-chloride cotransporter KCC2 (protein, UniProt Q63633 1-1139) MSRRFTVTSLPPAASAASADPESRRHSVADPRRLPREDVKGDGNPKESSPFINSTDTEKGREYDGRNMALFEEEMDTSPMVSSLLSGLANYTNLPQGSKEHEEAENNEGGKKKPVQAPRMGTFMGVYLPCLQNIFGVILFLRLTWVVGIAGIMESFCMVFICCSCTMLTAISMSAIATNGVVPAGGSYYMISRSLGPEFGGAVGLCFYLGTTFAGAMYILGTIEILLAYLFPAMAIFKAEDASGEAAAMLNNMRVYGTCVLTCMATVVFVGVKYVNKFALVFLGCVILSILAIYAGVIKSAFDPPNFPICLLGNRTLSRHGFDVCAKLAWEGNETVTTRLWGLFCSSRLLNATCDEYFTRNNVTEIQGIPGAASGLIKENLWSSYLTKGVIVERRGMPSVGLADGTPVDMDHPYVFSDMTSYFTLLVGIYFPSVTGIMAGSNRSGDLRDAQKSIPTGTILAIATTSAVYISSVVLFGACIEGVVLRDKFGEAVNGNLVVGTLAWPSPWVIVIGSFFSTCGAGLQSLTGAPRLLQAISRDGIVPFLQVFGHGKANGEPTWALLLTACICEIGILIASLDEVAPILSMFFLMCYMFVNLACAVQTLLRTPNWRPRFRYYHWTLSFLGMSLCLALMFICSWYYALVAMLIAGLIYKYIEYRGAEKEWGDGIRGLSLSAARYALLRLEEGPPHTKNWRPQLLVLVRVDQDQNVVHPQLLSLTSQLKAGKGLTIVGSVLEGTFLDNHPQAQRAEESIRRLMEAEKVKGFCQVVISSNLRDGVSHLIQSGGLGGLQHNTVLVGWPRNWRQKEDHQTWRNFIELVRETTAGHLALLVTKNVSMFPGNPERFSEGSIDVWWIVHDGGMLMLLPFLLRHHKVWRKCKMRIFTVAQMDDNSIQMKKDLTTFLYHLRITAEVEVVEMHESDISAYTYEKTLVMEQRSQILKQMHLTKNEREREIQSITDESRGSIRRKNPANTRLRLNVPEETACDNEEKPEEEVQLIHDQSAPSCPSSSPSPGEEPEGEGETDPEKVHLTWTKDKSAAQKNKGPSPVSSEGIKDFFSMKPEWENLNQSNVRRMHTAVRLNEVIVNKSRDAKLVLLNMPGPPRNRNGDENYMEFLEVLTEQLDRVMLVRGGGREVITIYS"
